We go through three molecules from doi:10.1101/598128 (bioRxiv, 2019).

The target in assay [1] is T1, Orc2 (subunit of the purified His-ORC complex) (budding yeast) (UniProt P32833).
T1 sequence: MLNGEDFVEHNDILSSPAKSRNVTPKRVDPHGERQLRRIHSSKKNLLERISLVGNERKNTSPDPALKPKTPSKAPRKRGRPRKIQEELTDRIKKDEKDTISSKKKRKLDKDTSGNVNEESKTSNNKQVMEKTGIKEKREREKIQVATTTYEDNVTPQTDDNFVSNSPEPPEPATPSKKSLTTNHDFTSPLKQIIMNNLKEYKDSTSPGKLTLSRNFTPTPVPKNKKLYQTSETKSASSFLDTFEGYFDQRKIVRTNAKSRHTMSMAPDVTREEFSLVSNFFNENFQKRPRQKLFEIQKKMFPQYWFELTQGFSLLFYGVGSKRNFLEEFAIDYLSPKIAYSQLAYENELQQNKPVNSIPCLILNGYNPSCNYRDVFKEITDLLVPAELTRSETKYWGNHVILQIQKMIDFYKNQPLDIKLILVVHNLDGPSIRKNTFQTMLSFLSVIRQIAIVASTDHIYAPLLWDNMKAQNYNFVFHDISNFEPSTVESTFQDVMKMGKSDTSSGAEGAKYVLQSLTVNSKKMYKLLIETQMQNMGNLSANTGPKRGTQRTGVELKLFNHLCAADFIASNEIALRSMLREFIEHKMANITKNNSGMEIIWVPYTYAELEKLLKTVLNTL
In words: cross-linking.

Assay [2] deals with T2, His-Orc1 (subunit of the purified His-ORC complex) (budding yeast) (UniProt P54784).
T2 sequence: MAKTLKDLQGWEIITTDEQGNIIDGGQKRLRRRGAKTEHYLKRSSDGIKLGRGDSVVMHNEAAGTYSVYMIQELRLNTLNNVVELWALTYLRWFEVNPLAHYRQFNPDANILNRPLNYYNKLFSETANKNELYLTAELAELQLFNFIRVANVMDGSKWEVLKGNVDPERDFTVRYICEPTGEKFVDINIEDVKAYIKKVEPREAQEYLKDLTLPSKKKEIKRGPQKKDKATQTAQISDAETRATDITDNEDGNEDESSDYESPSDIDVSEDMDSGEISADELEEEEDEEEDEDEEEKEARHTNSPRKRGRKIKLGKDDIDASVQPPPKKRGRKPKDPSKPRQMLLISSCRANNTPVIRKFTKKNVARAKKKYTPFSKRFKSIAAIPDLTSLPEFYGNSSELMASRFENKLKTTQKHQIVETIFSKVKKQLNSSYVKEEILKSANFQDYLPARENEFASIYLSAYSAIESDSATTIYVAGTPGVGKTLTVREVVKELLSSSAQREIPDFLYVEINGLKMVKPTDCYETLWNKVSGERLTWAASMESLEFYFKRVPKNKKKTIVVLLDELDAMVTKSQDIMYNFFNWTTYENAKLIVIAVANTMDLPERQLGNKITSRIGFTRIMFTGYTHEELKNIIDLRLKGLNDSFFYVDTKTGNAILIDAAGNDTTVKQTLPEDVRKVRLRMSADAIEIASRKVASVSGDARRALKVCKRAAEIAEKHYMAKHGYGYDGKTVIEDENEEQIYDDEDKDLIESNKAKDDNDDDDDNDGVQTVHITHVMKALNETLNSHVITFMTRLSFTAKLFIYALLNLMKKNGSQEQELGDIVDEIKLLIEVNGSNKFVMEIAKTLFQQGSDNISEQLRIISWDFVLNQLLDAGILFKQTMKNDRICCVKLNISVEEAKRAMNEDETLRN
Put plainly: co-purification.

Another assay deals with T3, Orc1-TAP (budding yeast) (UniProt P54784).
T3 sequence: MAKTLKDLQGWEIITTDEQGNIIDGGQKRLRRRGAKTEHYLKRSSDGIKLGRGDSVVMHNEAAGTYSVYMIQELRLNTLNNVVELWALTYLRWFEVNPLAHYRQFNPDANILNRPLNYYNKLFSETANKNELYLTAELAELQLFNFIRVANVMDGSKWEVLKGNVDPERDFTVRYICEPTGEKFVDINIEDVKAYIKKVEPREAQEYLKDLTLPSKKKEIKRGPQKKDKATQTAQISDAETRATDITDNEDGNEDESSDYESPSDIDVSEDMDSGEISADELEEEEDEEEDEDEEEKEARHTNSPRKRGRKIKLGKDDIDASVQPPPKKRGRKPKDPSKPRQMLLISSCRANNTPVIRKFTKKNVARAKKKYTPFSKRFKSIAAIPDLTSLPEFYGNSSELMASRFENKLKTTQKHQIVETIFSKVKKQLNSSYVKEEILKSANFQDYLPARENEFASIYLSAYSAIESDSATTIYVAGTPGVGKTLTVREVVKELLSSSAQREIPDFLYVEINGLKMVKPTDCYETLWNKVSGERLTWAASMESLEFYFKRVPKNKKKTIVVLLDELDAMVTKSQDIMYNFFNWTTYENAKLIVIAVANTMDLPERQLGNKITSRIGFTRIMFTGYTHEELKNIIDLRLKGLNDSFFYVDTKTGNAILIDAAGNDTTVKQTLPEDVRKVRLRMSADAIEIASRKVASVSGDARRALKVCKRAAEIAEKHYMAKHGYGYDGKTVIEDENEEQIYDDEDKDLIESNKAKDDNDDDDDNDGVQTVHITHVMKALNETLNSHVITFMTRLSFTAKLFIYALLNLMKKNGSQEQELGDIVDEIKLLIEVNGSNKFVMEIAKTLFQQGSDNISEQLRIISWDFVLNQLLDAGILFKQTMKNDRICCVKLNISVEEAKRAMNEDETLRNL
Put plainly: co-IP.

The next assay concerns the target T4, Orc5-TAP (budding yeast) (UniProt P50874).
T4 sequence: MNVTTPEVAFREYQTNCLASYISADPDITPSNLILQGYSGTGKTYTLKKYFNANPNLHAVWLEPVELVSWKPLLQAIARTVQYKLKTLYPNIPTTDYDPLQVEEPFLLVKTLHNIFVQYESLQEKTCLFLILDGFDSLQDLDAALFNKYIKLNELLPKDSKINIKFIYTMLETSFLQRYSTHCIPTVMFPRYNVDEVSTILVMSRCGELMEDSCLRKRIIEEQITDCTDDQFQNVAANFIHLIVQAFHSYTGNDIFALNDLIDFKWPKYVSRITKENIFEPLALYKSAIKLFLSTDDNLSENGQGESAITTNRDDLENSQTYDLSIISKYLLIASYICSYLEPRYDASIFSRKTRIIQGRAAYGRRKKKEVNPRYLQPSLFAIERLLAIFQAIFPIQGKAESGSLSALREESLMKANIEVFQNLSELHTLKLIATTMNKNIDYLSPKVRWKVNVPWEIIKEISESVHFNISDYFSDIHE
In words: co-IP.

A further assay concerns the target T5, Orc2-TAP (budding yeast) (UniProt P32833).
T5 sequence: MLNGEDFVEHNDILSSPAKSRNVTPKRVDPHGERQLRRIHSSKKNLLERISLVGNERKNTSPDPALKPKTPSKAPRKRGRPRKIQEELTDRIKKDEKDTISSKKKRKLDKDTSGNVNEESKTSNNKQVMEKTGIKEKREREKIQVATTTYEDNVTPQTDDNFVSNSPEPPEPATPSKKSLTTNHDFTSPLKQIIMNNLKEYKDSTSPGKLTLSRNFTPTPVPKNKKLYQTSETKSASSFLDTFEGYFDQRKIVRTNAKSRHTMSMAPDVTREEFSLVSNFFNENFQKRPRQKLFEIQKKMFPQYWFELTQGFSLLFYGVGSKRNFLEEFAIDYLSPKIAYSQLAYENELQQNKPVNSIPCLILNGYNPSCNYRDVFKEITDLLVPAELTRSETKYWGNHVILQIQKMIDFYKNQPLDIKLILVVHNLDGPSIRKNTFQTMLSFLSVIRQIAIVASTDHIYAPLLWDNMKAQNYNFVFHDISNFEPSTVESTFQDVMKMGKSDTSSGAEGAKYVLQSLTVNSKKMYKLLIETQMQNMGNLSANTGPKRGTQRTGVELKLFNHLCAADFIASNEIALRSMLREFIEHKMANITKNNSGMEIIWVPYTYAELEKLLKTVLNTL
In words: co-IP.

Assay [3] deals with T6, Orc3 (subunit of the purified His-ORC complex) (budding yeast) (UniProt P54790).
T6 sequence: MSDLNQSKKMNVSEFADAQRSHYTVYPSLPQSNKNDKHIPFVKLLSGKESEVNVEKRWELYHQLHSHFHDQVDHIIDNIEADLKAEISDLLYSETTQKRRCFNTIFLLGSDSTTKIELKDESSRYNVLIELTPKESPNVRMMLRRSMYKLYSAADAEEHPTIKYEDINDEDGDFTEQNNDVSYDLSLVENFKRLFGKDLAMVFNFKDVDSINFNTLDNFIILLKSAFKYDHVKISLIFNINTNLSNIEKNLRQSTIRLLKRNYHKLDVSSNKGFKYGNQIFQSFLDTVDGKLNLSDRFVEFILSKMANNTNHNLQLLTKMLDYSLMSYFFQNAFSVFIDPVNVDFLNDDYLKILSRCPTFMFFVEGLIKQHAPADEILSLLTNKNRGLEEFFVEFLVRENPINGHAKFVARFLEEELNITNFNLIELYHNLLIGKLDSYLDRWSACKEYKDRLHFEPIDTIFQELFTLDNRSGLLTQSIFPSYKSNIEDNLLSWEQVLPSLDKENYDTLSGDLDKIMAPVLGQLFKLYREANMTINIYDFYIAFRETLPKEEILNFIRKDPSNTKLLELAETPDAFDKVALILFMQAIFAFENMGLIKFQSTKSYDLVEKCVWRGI
Put plainly: cross-linking.

These are yes or no findings as the source states them, for the method shown. For some of these results: Binding seen in cells or lysates may run through a third protein. Some binding calls cover weakened binding; strength is not graded here. For some of these results: Sequences can lack the tags named with a protein.

B1: Orc3 (subunit of the purified His-ORC complex) (protein, UniProt P54790 1-616)
chain: MSDLNQSKKMNVSEFADAQRSHYTVYPSLPQSNKNDKHIPFVKLLSGKESEVNVEKRWELYHQLHSHFHDQVDHIIDNIEADLKAEISDLLYSETTQKRRCFNTIFLLGSDSTTKIELKDESSRYNVLIELTPKESPNVRMMLRRSMYKLYSAADAEEHPTIKYEDINDEDGDFTEQNNDVSYDLSLVENFKRLFGKDLAMVFNFKDVDSINFNTLDNFIILLKSAFKYDHVKISLIFNINTNLSNIEKNLRQSTIRLLKRNYHKLDVSSNKGFKYGNQIFQSFLDTVDGKLNLSDRFVEFILSKMANNTNHNLQLLTKMLDYSLMSYFFQNAFSVFIDPVNVDFLNDDYLKILSRCPTFMFFVEGLIKQHAPADEILSLLTNKNRGLEEFFVEFLVRENPINGHAKFVARFLEEELNITNFNLIELYHNLLIGKLDSYLDRWSACKEYKDRLHFEPIDTIFQELFTLDNRSGLLTQSIFPSYKSNIEDNLLSWEQVLPSLDKENYDTLSGDLDKIMAPVLGQLFKLYREANMTINIYDFYIAFRETLPKEEILNFIRKDPSNTKLLELAETPDAFDKVALILFMQAIFAFENMGLIKFQSTKSYDLVEKCVWRGI
Consider B1, for which the binding entry in assay [1] and in assay [2] was “binds” in each case.

B2: Pch2-E399Q (protein, UniProt P38126 1-564)
chain: MSYIVDLQVRGSSLRVIKCMFREDEQISSLHSGSDSKQNSNKKLGEFLNLLKAVVKRKLESFPKDRLKTSIITGQELMREGQGSIEIKDPPTEAQQHLIRSLAKVLLHQFSSINGKVNTVNEGQDNLFLSLFVKKISIEQQSTSHVSIKLNFHEKINLGQHIDSILDSEETNESDTYHMGSVDEFIIYPFCCLEEQDELKNGSILSTEFDKIDLELDEDDGFEGETLNNCINSVGNFDIPLSKQTLNLVNISYLPGTTFEGQWESLYFGNNIKERLYSYATISLKIARFKQTGDSNQEDITTLITNNKLLLVHGPPGTGKTTLCKALCQKLSVRREFSDGSDTIDTNYKGIIIELSCARIFSKWFGESSKNISIVFKDIEELLKVNEGRGIFICLLIDQVEAIASSRTNLSSRNESTDGIRVVNTLLTQLDRLKKYHNFLALATSNLLDSLDDAFVDRADGVFYVGNPTAEGILHILKVCIEEMITSGIILFHARSTGVKFFNKYQDILRKIAIKCSTVDISGRTIRKLPLMCLSEYFRTFPVDDDEFVLALAMSARKLSAARK
In the case of B2, the binding entry in the assay with Orc1-TAP (budding yeast), with Orc5-TAP (budding yeast) and with Orc2-TAP (budding yeast) was “binds” in each case.

B3: Orc5 (subunit of the purified His-ORC complex) (natural protein, budding yeast)
chain: MNVTTPEVAFREYQTNCLASYISADPDITPSNLILQGYSGTGKTYTLKKYFNANPNLHAVWLEPVELVSWKPLLQAIARTVQYKLKTLYPNIPTTDYDPLQVEEPFLLVKTLHNIFVQYESLQEKTCLFLILDGFDSLQDLDAALFNKYIKLNELLPKDSKINIKFIYTMLETSFLQRYSTHCIPTVMFPRYNVDEVSTILVMSRCGELMEDSCLRKRIIEEQITDCTDDQFQNVAANFIHLIVQAFHSYTGNDIFALNDLIDFKWPKYVSRITKENIFEPLALYKSAIKLFLSTDDNLSENGQGESAITTNRDDLENSQTYDLSIISKYLLIASYICSYLEPRYDASIFSRKTRIIQGRAAYGRRKKKEVNPRYLQPSLFAIERLLAIFQAIFPIQGKAESGSLSALREESLMKANIEVFQNLSELHTLKLIATTMNKNIDYLSPKVRWKVNVPWEIIKEISESVHFNISDYFSDIHE
Take B3: the binding entry in assay [3] and in assay [2] was “binds” throughout.
